The source of these data is paper PMC7819943, “Rice protein-binding microarrays: a tool to detect cis-acting elements near promoter regions in rice”.

The list shows a part of the results.

The assay concerns the target T1, OsSMF1 (Oryza sativa, UniProt Q6ZLB0 1-436).
T1 sequence: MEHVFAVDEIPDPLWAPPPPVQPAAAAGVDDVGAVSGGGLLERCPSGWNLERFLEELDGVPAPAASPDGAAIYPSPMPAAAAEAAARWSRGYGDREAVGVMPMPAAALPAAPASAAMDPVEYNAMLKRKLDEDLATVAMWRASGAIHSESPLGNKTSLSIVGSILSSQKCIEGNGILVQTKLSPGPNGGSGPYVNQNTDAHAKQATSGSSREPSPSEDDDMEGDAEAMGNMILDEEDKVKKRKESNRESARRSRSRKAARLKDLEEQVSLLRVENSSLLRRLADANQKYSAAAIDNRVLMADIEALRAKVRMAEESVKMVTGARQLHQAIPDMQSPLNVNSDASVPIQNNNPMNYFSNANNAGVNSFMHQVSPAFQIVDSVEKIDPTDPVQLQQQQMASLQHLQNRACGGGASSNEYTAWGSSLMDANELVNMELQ
Description: protein-binding microarray (RPBM); PBS, 2% BSA, 51.3 ng/ul salmon testes DNA, 50 uM zinc acetate, 200 nM TF, 25 C, 1 h; high values mean tight binding. The conditions noted are these: protein: recombinant; tags: N-terminal polyhistidine and DsRed monomer fusion (pET32a); chain copies: 2; label: CyDye5-dUTP incorporated in the synthesized complementary strand; 3' TTTTT single-stranded linker to array surface; dsDNA, one strand shown. In short, it runs like this:
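The binding signal for each feature is its fluorescence intensity in arbitrary units. An Axon 4000B scanner was used to read a custom Agilent array that had been made double-stranded with Cy5-dUTP primer extension, blocked with 2% BSA, incubated at 25 °C for 1 h with 200 nM protein in PBS, 2% BSA, salmon testes DNA and 50 µM zinc acetate, and washed. The protein was an N-terminal polyhistidine–DsRed transcription factor fusion from E. coli BL21-CodonPlus, purified on Ni–NTA.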
In the case of “ACGTGCGAGCTGCGTGGAGAGAGGATGATGTGTGAGGAAGCGGAGTCACCTAGTGCAG”, the binding signal is 5910 fluorescence intensity (a.u.).

Take “AGGGACAAGAGAGTACAGACAGTCAACTTGCGTGGCACAACGGAGTCACCTAGTGCAG”: the binding signal is 4860 fluorescence intensity (a.u.).

As to “ATGAGACTAATCTGATGTGTAAAACTGCTCACTTTCCGCTCGGAGTCACCTAGTGCAG”, the binding signal was 5500 fluorescence intensity (a.u.).

Turning to “CAAACCGTGATGGCACGCCACGTCAACGCTTTGACCGCCACGGAGTCACCTAGTGCAG”, the binding signal was 25400 fluorescence intensity (a.u.).

As for “CTCCACGTGACGCAACGCGATCCCTTCTCTTCCCCATTTGCGGAGTCACCTAGTGCAG”, the binding signal was 5380 fluorescence intensity (a.u.).

Turning to “CTCTCCTCGAGTCTCCTCTCCACCCTGGCAGTGTTATTGTCGGAGTCACCTAGTGCAG”, the binding signal is 4900 fluorescence intensity (a.u.).

As to “GGAGCTCTCAGACACCAACTTACCGTCGTTCCAAGCCTTGCGGAGTCACCTAGTGCAG”, the binding signal is 3450 fluorescence intensity (a.u.).

With “TGTCAGTATGTGTGTGACGTCGCATGGCAGCTGTGTTTGCCGGAGTCACCTAGTGCAG”, the binding signal is 4610 fluorescence intensity (a.u.).

On to “ATATATGGGGAAATTCAATTCATTACACACCTCAAGGATTCGGAGTCACCTAGTGCAG”, for which the binding signal was 3370 fluorescence intensity (a.u.).

On to “GTGGATGTATATCCGTGTGGTCGTGGCGAATTTGTTCATTCGGAGTCACCTAGTGCAG”, for which the binding signal is 3170 fluorescence intensity (a.u.).

Consider “GGAATGCAAGAGATTCAGAGAAACCTTACGCTTACGCGTGCGGAGTCACCTAGTGCAG”, for which the binding signal was 3830 fluorescence intensity (a.u.).

With “TATATAGCCATAGCTGGCTGCAAGCCTATTGCTGCACCCTCGGAGTCACCTAGTGCAG”, the binding signal is 3330 fluorescence intensity (a.u.).

For “AGGCTATTTCCCACGTTCCCGCCCCGTTGGCCAAATCTCTCGGAGTCACCTAGTGCAG”, the binding signal was 4310 fluorescence intensity (a.u.).

For “TAGGATGTACATATGTGATGGGTGATGATGTAACTTAAATCGGAGTCACCTAGTGCAG”, the binding signal was 4150 fluorescence intensity (a.u.).

In the case of “CTCTGCACAAGCCCACCTGGCATGGCGATTCATGGTGTGTCGGAGTCACCTAGTGCAG”, the binding signal was 3760 fluorescence intensity (a.u.).

Regarding “TTGGCATCTGGTGTGTCATCGTAATCTTTATTTACTTGTCCGGAGTCACCTAGTGCAG”, the binding signal is 5850 fluorescence intensity (a.u.).

For the sequence “GCCGACCAACTTTTGCCGGTCACGTGTACCAGAGAGAGGTCGGAGTCACCTAGTGCAG”, the binding signal was 4590 fluorescence intensity (a.u.).

As for “CTAAATCCAGTTTGATAGTGGAGTGTGCTGATGTCAAAGTCGGAGTCACCTAGTGCAG”, the binding signal is 4270 fluorescence intensity (a.u.).

With “GCCAGATGCAAAGAGCGCTACTGTCAGATGTGAAGGGGAGCGGAGTCACCTAGTGCAG”, the binding signal was 28200 fluorescence intensity (a.u.).

“GGCGGCTCATCATCGGCTTTCATCGCCTCGCCTCTTCGTTCGGAGTCACCTAGTGCAG”: the binding signal was 3320 fluorescence intensity (a.u.).

For the sequence “AGGTTGCAGCGCACGCGACGCGTCCCTCTCCGTGCTGCCGCGGAGTCACCTAGTGCAG”, the binding signal was 3230 fluorescence intensity (a.u.).

“GTCAAGTGCCTTCATTCCTTGAGTTTTGCTCGAAAAGAATCGGAGTCACCTAGTGCAG”: the binding signal is 15500 fluorescence intensity (a.u.).

For “AGCACGCCACGTGGCCAGCTAGACATGCGAAATGTCCGTCCGGAGTCACCTAGTGCAG”, the binding signal is 16400 fluorescence intensity (a.u.).

As to “TGCAAATTGTGCTTTTCTATTCTGTTGTGTCTTCTGCTTTCGGAGTCACCTAGTGCAG”, the binding signal was 40700 fluorescence intensity (a.u.).

For “GCTAACTCCGTGTGACCATGTTGCCTACGATTTCCCTGAACGGAGTCACCTAGTGCAG”, the binding signal is 3860 fluorescence intensity (a.u.).

For “TATACAAGCTTGGCGTGTGCGTCACTCGCACCCAGCTTGCCGGAGTCACCTAGTGCAG”, the binding signal is 5300 fluorescence intensity (a.u.).

For “TCTTCCCCATGATTATGTCAGAGCTATCAATGCACAGATGCGGAGTCACCTAGTGCAG”, the binding signal is 3700 fluorescence intensity (a.u.).

In the case of “ATTGTTTGGTTCCCACGTAAGTTGAGGCAGCCACACCACGCGGAGTCACCTAGTGCAG”, the binding signal is 4420 fluorescence intensity (a.u.).

With “TGCACCACTCACCCTGCCACGCGCTATATATGGCCACCACCGGAGTCACCTAGTGCAG”, the binding signal is 3850 fluorescence intensity (a.u.).

In the case of “GATCGTTCTTATCTGATCCAATAATGACGCGCCAATCGCTCGGAGTCACCTAGTGCAG”, the binding signal is 5720 fluorescence intensity (a.u.).

With “CTTCAGCTGGTTCACCTGTTCAGTGACACATAATATTTTCCGGAGTCACCTAGTGCAG”, the binding signal is 3220 fluorescence intensity (a.u.).

On to “ACACCAACAGTGTAGTTTTCTGATGTAGCCGCCGCCGTGGCGGAGTCACCTAGTGCAG”, for which the binding signal was 4220 fluorescence intensity (a.u.).

As to “AAATTCACTGCAAGTACTAATGCAGTGCAGCCGTACGAACCGGAGTCACCTAGTGCAG”, the binding signal was 20600 fluorescence intensity (a.u.).

With “CCCAATTCGAGGCGCGCGATTCGCTCGCTCGGTTTTCCATCGGAGTCACCTAGTGCAG”, the binding signal was 3360 fluorescence intensity (a.u.).

For “TTACGCTACGTGCGCCCCATCTGGGAGGGGTGCCACGTGGCGGAGTCACCTAGTGCAG”, the binding signal was 29400 fluorescence intensity (a.u.).

As to “ACAAATAAGCCATGTTAATTTGAGTCAACTGACTAATGCGCGGAGTCACCTAGTGCAG”, the binding signal was 3910 fluorescence intensity (a.u.).

As for “AGCTTCATTGACGCCATTCGCGACCGGCCGCCGCCCTCGCCGGAGTCACCTAGTGCAG”, the binding signal was 3470 fluorescence intensity (a.u.).

For the sequence “CTTGGCTGTTCTTGGGTGGGTGAGGTGGGGCGGTCGGATCCGGAGTCACCTAGTGCAG”, the binding signal was 6160 fluorescence intensity (a.u.).

In the case of “CAGGTGAGGATGTTGCCAGCGTGCATGTCGGCGTTGGCCACGGAGTCACCTAGTGCAG”, the binding signal was 3300 fluorescence intensity (a.u.).

In the case of “TTAAACCCAGAGATGTTTTGTAGCTAGCGTGACACAAACTCGGAGTCACCTAGTGCAG”, the binding signal is 4070 fluorescence intensity (a.u.).

Take “GACGAACGGTCAAACGTTGGACACGGAAACCAGGTTTGTCCGGAGTCACCTAGTGCAG”: the binding signal was 3460 fluorescence intensity (a.u.).

Regarding “CAAGGTTCCCAAGTACATCATCCTAGGCTCCATTCGAGCTCGGAGTCACCTAGTGCAG”, the binding signal was 3230 fluorescence intensity (a.u.).
